For three molecules, binding results are on record in article PMC4358236 (The Journal of Biological Chemistry, 2015).

Chains of the proteins cited; added tags and fusions are not shown.
UniProt Q85295: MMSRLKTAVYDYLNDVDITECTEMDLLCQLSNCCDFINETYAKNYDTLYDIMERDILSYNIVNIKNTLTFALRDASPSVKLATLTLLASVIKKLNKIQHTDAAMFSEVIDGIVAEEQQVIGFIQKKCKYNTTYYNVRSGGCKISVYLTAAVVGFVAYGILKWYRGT
UniProt Q07812: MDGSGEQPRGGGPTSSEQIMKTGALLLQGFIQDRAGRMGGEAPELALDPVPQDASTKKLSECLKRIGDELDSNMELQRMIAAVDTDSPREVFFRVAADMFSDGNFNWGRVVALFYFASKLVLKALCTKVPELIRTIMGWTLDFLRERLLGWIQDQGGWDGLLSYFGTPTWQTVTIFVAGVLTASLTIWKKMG
UniProt Q9Y297: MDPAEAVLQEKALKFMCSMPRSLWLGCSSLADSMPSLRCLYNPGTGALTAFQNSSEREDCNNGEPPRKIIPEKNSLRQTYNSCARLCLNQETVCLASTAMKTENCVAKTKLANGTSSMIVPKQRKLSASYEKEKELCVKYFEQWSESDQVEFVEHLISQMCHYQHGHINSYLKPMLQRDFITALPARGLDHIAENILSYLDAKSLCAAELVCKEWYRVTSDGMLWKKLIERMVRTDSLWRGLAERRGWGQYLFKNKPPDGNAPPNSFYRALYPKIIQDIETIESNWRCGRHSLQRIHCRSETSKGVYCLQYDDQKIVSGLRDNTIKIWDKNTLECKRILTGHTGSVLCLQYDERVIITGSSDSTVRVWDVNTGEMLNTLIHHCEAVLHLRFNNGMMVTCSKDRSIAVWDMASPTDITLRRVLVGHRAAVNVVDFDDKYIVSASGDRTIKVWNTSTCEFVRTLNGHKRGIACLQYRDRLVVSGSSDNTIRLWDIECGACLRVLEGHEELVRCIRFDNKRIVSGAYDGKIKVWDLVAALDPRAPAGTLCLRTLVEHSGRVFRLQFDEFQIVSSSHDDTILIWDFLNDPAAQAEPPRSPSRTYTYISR

Results are given in words; binding and its absence hold for the method and conditions named. In cells and extracts the contact can be indirect. Some entries that bind do so weakly or less than the wild type. Tags and fused reporters may be left off the sequences shown.

B1: HA-tagged human Bak (protein, UniProt Q16611 1-211)
chain: MASGQGPGPPRQECGEPALPSASEEQVAQDTEEVFRSYVFYRHQQEQEAEGVAAPADPEMVTLPLQPSSTMGQVGRQLAIIGDDINRRYDSEFQTMLQHLQPTAENAYEYFTKIATSLFESGINWGRVVALLGFGYRLALHVYQHGLTGFLGQVTRFVVDFMLHHCIARWIAQRGGWVAALNLGNGPILNVLVVLGVVLLGQFVVRRFFKS

This experiment has as its target FLAG-tagged myxoma virus protein M11 (myxoma virus) (UniProt Q85295). Description: co-IP.
With “HA-tagged human Bax (from UniProt Q07812 1-192)”, the binding result is “binds”.
The result for “Myc-tagged β-TrCP (from UniProt Q9Y297 1-605)” reads “no binding”; that for B1, “binds”.
